Measurements as given in paper PMC7112222, “Investigation of pyrimidine nucleoside analogues as chemical probes to assess compound effects on the proliferation of Trypanosoma cruzi intracellular parasites” (PLoS Neglected Tropical Diseases, 2020).
Structures can show the parent of a compound that is named as a salt.

What was measured:
[1] = system: T. cruzi intracellular amastigotes; experiment: Detection of T. cruzi replication following exposure to inhibitors (EdU incorporation vs Hoechst); type: cell-based, Trypanosoma cruzi; settings: for IC50: Trypanosoma cruzi, 48 hours exposure, mean ± SD
Experimental: The addition of host cells, parasites and compounds were as described for the T. cruzi image based method previously reported. […] Addition of nuclear and cytoplasmic dyes was undertaken as previously reported and images captured on an Opera confocal image-based system at 20x magnification. Image analysis was performed with a script developed in Columbus software (CHEMICAL LABEL INCORPORATION SCRIPT). Control wells were also imaged at an increased, 60x magnification to show the distribution of staining and the structure of the parasites within host cells. Eight background control wells consisted of infected host cells, fixed and exposed to Hoechst and the click chemistry cocktail, without the addition of the chemical probe EdU. […] All images taken were not modified and were taken on an Opera, confocal image-based reader. […] Results are given ± standard deviation and mean values were taken from two experimental replicates.

[2] = system: T. cruzi intracellular amastigotes; experiment: Image-based assay of the number of T. cruzi infected cells (intracellular amastigotes in 3T3 host cells); type: cell-based; settings: Trypanosoma cruzi; 48 hours exposure; well-established intracellular infection assay; mean ± SD; POSA value based on sub-optimal effect (Emax 75%); read-out: IC50 value Infected cells (Hoechst)
Experimental: Parasites and host cells were maintained as outlined previously. Briefly, host 3T3 fibroblasts (ATCC, CCL-92) were grown in RPMI medium (Thermo Fisher Scientific, USA) with no phenol red, supplemented with 10% FBS (Thermo Fisher Scientific, USA) and incubated at 37°C in 5% CO2. Host cells were harvested at 70% confluency and were split every 2–3 days in 175 cm^2 flasks. 3T3 cells were cultured up to passage 7 as contact inhibition was reduced or lost at higher passages. Prior to infection with T. cruzi trypomastigotes, host cells were seeded at 1.2 x 10^6 cells in 75 cm^2 or 4 x 10^5 cells in 25 cm^2 flasks and grown for 24 hours before parasite addition. […]
The activity of the nucleoside analogues against T. cruzi intracellular amastigotes following 24, 48 hours exposure and compound wash off, was determined using image-based techniques as previously described. […]
IC50 values for inhibitory activity of both the nucleoside analogues tested as DNA probes and known inhibitors tested to determine their effect on replication of T. cruzi were calculated in GraphPad Prism 5, using sigmoidal dose response with variable slope. […] The p-value for difference in the % activity at Emax concentrations for compounds with known activity (EdU identified parasites, compared to Hoechst identified parasites) against T. cruzi was determined using GraphPad Prism 5, using an unpaired student’s t-test. […]

- IC50 ([1]; then 0.37 μM EdU for 4 hours, number of EdU incorporating parasites, read-out: IC50 value Amastigotes (EdU)): 460 ± 100 nM
- IC50 ([1]; number of Hoechst identified parasites in infected cells, read-out: IC50 value Amastigotes (Hoechst)): 430 ± 31 nM
Structure (SMILES): CN1CCC[C@@H]1CCO[C@](C)(c1ccccc1)c1ccc(Cl)cc1 [CF, clemastine fumarate]
- inhibition of EdU incorporation ([1]; 2 hours exposure, 45 x the IC50 value, then 1.83 μM EdU 2 hours): < 20%
- IC50 [2]: 560 ± 46 nM
